Test results taken from paper PMC7819943, “Rice protein-binding microarrays: a tool to detect cis-acting elements near promoter regions in rice”.
This is one part of the list.

Sequences of proteins named here, by UniProt entry; tags and fusion partners are left off.
UniProt Q0JBA9, entry or part of it: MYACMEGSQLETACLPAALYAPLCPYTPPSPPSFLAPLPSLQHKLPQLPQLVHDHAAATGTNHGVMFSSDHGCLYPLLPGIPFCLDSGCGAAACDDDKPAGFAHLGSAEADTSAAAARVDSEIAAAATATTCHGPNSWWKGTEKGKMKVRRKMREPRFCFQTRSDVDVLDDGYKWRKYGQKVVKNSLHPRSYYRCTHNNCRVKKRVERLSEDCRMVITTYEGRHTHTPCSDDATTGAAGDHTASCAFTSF

What follows are sequences tested against OsWRKY34 (Oryza sativa, UniProt Q0JBA9 1-250) (assay: protein-binding microarray (RPBM); PBS, 2% BSA, 51.3 ng/ul salmon testes DNA, 50 uM zinc acetate, 200 nM TF, 25 C, 1 h; high values mean tight binding). Settings: protein: recombinant; tags: N-terminal polyhistidine and DsRed monomer fusion (pET32a); label: CyDye5-dUTP incorporated in the synthesized complementary strand; 3' TTTTT single-stranded linker to array surface; dsDNA, one strand shown.
How it was run: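 Binding signal is defined as the fluorescence intensity of each feature in arbitrary units, read on an Axon 4000B scanner. Transcription factors with N-terminal polyhistidine and DsRed fusions came from E. coli BL21-CodonPlus and were purified on Ni–NTA. They were incubated at 200 nM for 1 h at 25 °C on a custom Agilent array that had been made double-stranded with Cy5-dUTP, with 50 µM zinc acetate present, and the array was washed.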

| Sequence | binding signal |
| --- | --- |
| TTTTCCTTTGAGTCTATCTCTTTCATCAAATTCCTGTGTTCGGAGTCACCTAGTGCAG | 8720 fluorescence intensity (a.u.) |
| ACCCCACGGATCGCACCCCTCGCCTTCACCTCCTATAAATCGGAGTCACCTAGTGCAG | 8520 fluorescence intensity (a.u.) |
| GAGCATCTTGTGTTGTCCGGTTCCAAAATTGTGTGTATTTCGGAGTCACCTAGTGCAG | 9560 fluorescence intensity (a.u.) |
| GCCACCGCCGCCTGCTCCGATCCCCATCCATCGCGCGAGCCGGAGTCACCTAGTGCAG | 9430 fluorescence intensity (a.u.) |
| ATCCTCTTGCAGTTTTTCTATTGGTTTCTGCCTCGCCAGCCGGAGTCACCTAGTGCAG | 9830 fluorescence intensity (a.u.) |
| AGCCGCCGCCGCCTCCTCTCGTCGCCGGCCGTCGTCGGACCGGAGTCACCTAGTGCAG | 8420 fluorescence intensity (a.u.) |
| ACTCTTTTCTTCTCCAACACTGTCCCTTCCCGTCTTTCTCCGGAGTCACCTAGTGCAG | 8820 fluorescence intensity (a.u.) |
| TGCTGAGGTTCCTATCCATTTCATAATGCAAACCTGACTTCGGAGTCACCTAGTGCAG | 8920 fluorescence intensity (a.u.) |
| CAACCCACCGGTTCACTCCGTCTCCACTGCACGACCAAGTCGGAGTCACCTAGTGCAG | 9050 fluorescence intensity (a.u.) |
| CTTCCCTAAATGTTTGACACCGTTGACTTTTTAAAATATACGGAGTCACCTAGTGCAG | 10500 fluorescence intensity (a.u.) |
| ACGTGGCCAAACGACGCCATCCAAGCCGCCCGTTCTCGACCGGAGTCACCTAGTGCAG | 8360 fluorescence intensity (a.u.) |
| ACCACCACATCACATTATCCCCGTGCCGTCCAATCCAACGCGGAGTCACCTAGTGCAG | 9590 fluorescence intensity (a.u.) |
| CCACCTTTGGCAGCTCACAGCTCGCATCGGCGCGCAAACCCGGAGTCACCTAGTGCAG | 8100 fluorescence intensity (a.u.) |
| GGATCTAGCGTCTCCGCTTTTCATCGGGTCAACTCTTGCCCGGAGTCACCTAGTGCAG | 9540 fluorescence intensity (a.u.) |
| TTTTGGTGGGTGGGTTTGGGACGTTGGATTGGTGGTGGACCGGAGTCACCTAGTGCAG | 12600 fluorescence intensity (a.u.) |
| AAAATCCCACCCGCTTCTTTCTTCTCCGAATTTTCCCTTTCGGAGTCACCTAGTGCAG | 10700 fluorescence intensity (a.u.) |
| CCTGGTCTTTGATTGGTCCACGTGGCGCAGCGAGAATTCACGGAGTCACCTAGTGCAG | 8230 fluorescence intensity (a.u.) |
| GCCTGCCGCCCTCCCATCGCCGCTCCGCCCGCCGACTGTCCGGAGTCACCTAGTGCAG | 8490 fluorescence intensity (a.u.) |
| GCTGAACAGGGGAGGGGCGGCGATCTCTATCTGGCGAGCACGGAGTCACCTAGTGCAG | 13300 fluorescence intensity (a.u.) |
| ACTCCGTTGTCTCCGCCTCCGATCTCCGGCGACGAGCGGCCGGAGTCACCTAGTGCAG | 8650 fluorescence intensity (a.u.) |
| CCCACACCACCTCGCCCAATTAAACCCTCACCCATTCTTTCGGAGTCACCTAGTGCAG | 9140 fluorescence intensity (a.u.) |
| ACTGCGTACGCACTGCCTGCATATATATTTTTAATTGGGACGGAGTCACCTAGTGCAG | 8380 fluorescence intensity (a.u.) |
| TCATTCAATGAGTAACGGTATAATTATTTTTTTCTCAACCCGGAGTCACCTAGTGCAG | 8810 fluorescence intensity (a.u.) |
| CACTCACCCAGTTTTGCTGCTGCTGCTGCTCGTCTTCCTCCGGAGTCACCTAGTGCAG | 8390 fluorescence intensity (a.u.) |
| AATTGACTGGTTTAATCTCTGTTCGTACCCAAAATATAGCCGGAGTCACCTAGTGCAG | 8840 fluorescence intensity (a.u.) |
| GCCCGCCACGGCCACGCGCCAGTAGCTGCAGCGTTGTCTCCGGAGTCACCTAGTGCAG | 8580 fluorescence intensity (a.u.) |
| CTCGCTAACTCACAAGCACAATCCTAACACATTCTCATAACGGAGTCACCTAGTGCAG | 8760 fluorescence intensity (a.u.) |

| Sequence | binding signal |
| --- | --- |
| TTTTGACATTAATCTCTTGGTGTTCTTCTCTTTGTCTGCTCGGAGTCACCTAGTGCAG | 8870 fluorescence intensity (a.u.) |
| TTTAATTAATCCCGTCTCCTCATTCGTCGCCGCCCTCGCACGGAGTCACCTAGTGCAG | 8540 fluorescence intensity (a.u.) |
| TAGCCATTTTTCTCCTCGGTTTCTCCTCTCCTCAACTCAACGGAGTCACCTAGTGCAG | 8940 fluorescence intensity (a.u.) |
| GCGCTACGGACGGAAGAGACGGAGTGGCACGGAATAAAGACGGAGTCACCTAGTGCAG | 61600 fluorescence intensity (a.u.) |
| TCGTCGGCTTCCTCTCGCCGCACCCATCGATATCCATCTCCGGAGTCACCTAGTGCAG | 9400 fluorescence intensity (a.u.) |
| CGTATCACCCACTCTCCTTTTAATGTTATTAGCATTGACCCGGAGTCACCTAGTGCAG | 10000 fluorescence intensity (a.u.) |
| CAAAGAGGTGACCATCCGGTTTCGTCTCCGTTTCGTCTTCCGGAGTCACCTAGTGCAG | 8070 fluorescence intensity (a.u.) |
| CTAATTAGTACTGCAATTTTGGGTCCTTGGGTTGTTAGAACGGAGTCACCTAGTGCAG | 16900 fluorescence intensity (a.u.) |
| TCTTCTGTCAAAAAGACACTACATTCTCTTATACCCATCACGGAGTCACCTAGTGCAG | 9560 fluorescence intensity (a.u.) |
| CCATCGCCGAGCAGTCAACGAGCAAGTTAAATTCGCAGCACGGAGTCACCTAGTGCAG | 10700 fluorescence intensity (a.u.) |
| TCAAGCTTCTGTTTTACTACTAGTACAATCCTTTTTTTTTCGGAGTCACCTAGTGCAG | 12400 fluorescence intensity (a.u.) |
| TCCTCCTCGTGCTCGCCCTCGCCGCGCTCGCCGAGGCCCTCGGAGTCACCTAGTGCAG | 9330 fluorescence intensity (a.u.) |
| ACGATCCAGACAGGCAGACAAGCAGATTGACCGATTCACCCGGAGTCACCTAGTGCAG | 8510 fluorescence intensity (a.u.) |
| CATATTTGCATCATCGTTCCACTTATACTTATTCGAGCTACGGAGTCACCTAGTGCAG | 9460 fluorescence intensity (a.u.) |
| ACCTAGAAGTTTCAACCGTCGTTGACTATGACAACAGTCGCGGAGTCACCTAGTGCAG | 11700 fluorescence intensity (a.u.) |
| TGTACTAAAAAGTCAACGGCGTCAAACATTTCGAAACGGACGGAGTCACCTAGTGCAG | 8400 fluorescence intensity (a.u.) |
| GTGGGGTTTGTTTTTTCTCCGAGCGGCCCCGTTGAGACTTCGGAGTCACCTAGTGCAG | 13600 fluorescence intensity (a.u.) |
| GGAACGTGGCAACTGACACGTCTCGACCTTTTTTGTTGCACGGAGTCACCTAGTGCAG | 8420 fluorescence intensity (a.u.) |
| ATTTTGCATGGGGCATGTGTGAAGTGTCCTACTAAATTTTCGGAGTCACCTAGTGCAG | 9350 fluorescence intensity (a.u.) |
| CTCCTTAACCTGCTCCATCAGCGCACCCCACACGCACTTCCGGAGTCACCTAGTGCAG | 10400 fluorescence intensity (a.u.) |
| AACGTACCACTCCCGTGGGCCGGACCAACACTCCTTCCCACGGAGTCACCTAGTGCAG | 9510 fluorescence intensity (a.u.) |
| CATCTTCGCTTAGGCTTCGACTCCTTGGTCCTCCTAGTCTCGGAGTCACCTAGTGCAG | 9840 fluorescence intensity (a.u.) |
| CCTCTCCGCACCTTAACTCCTTCGCTCTCCGCCCACTTCCCGGAGTCACCTAGTGCAG | 10100 fluorescence intensity (a.u.) |
| CCTTTTGCTTCCTTTTAAGCATTGCTTTTCCTGGCCATCCCGGAGTCACCTAGTGCAG | 8970 fluorescence intensity (a.u.) |
| CCCGACTACGGCTACATCGACCACGGCTACTCTACGCACGCGGAGTCACCTAGTGCAG | 8780 fluorescence intensity (a.u.) |
| TCCCTGTTTTCCTGTGTCTTTCTCCACCTCCTCATATATCCGGAGTCACCTAGTGCAG | 8620 fluorescence intensity (a.u.) |
| GGGGAGGCCGGATCTGCGGGGAGGGGCATGGGGTGACCAGCGGAGTCACCTAGTGCAG | 15900 fluorescence intensity (a.u.) |

Single values from the results shown.
Entry of TCGTCGGCTTCCTCTCGCCGCACCCATCGATATCCATCTCCGGAGTCACCTAGTGCAG under binding signal: 9400 fluorescence intensity (a.u.)
Entry of TCTTCTGTCAAAAAGACACTACATTCTCTTATACCCATCACGGAGTCACCTAGTGCAG under binding signal: 9560 fluorescence intensity (a.u.)
Entry of CCTGGTCTTTGATTGGTCCACGTGGCGCAGCGAGAATTCACGGAGTCACCTAGTGCAG under binding signal: 8230 fluorescence intensity (a.u.)
